Holding throughout (test): proximity labelling
Assay [1] addresses T1, PRICKLE3 fused N-terminally with miniTurboID and the V5 tag (human) (UniProt O43900).
T1 sequence: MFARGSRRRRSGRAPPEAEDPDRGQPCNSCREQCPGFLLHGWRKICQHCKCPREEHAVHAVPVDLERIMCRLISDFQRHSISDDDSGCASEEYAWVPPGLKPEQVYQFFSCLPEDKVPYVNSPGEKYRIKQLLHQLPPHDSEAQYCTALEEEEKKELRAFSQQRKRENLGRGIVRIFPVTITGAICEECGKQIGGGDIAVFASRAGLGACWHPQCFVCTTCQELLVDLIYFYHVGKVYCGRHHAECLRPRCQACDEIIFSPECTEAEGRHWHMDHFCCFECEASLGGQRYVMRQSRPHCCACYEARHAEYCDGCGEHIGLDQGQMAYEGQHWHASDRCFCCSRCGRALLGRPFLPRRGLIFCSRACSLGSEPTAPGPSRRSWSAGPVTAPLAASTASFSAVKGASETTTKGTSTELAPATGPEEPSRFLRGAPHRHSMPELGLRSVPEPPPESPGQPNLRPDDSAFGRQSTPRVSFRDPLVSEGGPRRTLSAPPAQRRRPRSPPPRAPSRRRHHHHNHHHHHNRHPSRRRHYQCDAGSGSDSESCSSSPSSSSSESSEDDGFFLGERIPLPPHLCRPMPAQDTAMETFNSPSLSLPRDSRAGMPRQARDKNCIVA

Sequences of proteins named here, by UniProt entry; tags and fusion partners are left off. Residues count along the entry.
UniProt P49674: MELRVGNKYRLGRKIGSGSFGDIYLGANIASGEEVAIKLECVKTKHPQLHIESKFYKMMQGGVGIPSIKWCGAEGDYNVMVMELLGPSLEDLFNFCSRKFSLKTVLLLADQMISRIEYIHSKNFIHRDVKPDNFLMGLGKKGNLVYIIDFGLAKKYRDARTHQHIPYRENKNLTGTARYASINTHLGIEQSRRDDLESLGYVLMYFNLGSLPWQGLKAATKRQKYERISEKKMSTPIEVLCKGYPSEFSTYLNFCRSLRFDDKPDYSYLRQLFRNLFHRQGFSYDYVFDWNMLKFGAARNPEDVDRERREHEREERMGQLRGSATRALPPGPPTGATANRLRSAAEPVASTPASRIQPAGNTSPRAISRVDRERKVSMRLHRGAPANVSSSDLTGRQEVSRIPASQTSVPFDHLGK
UniProt Q2KJY2: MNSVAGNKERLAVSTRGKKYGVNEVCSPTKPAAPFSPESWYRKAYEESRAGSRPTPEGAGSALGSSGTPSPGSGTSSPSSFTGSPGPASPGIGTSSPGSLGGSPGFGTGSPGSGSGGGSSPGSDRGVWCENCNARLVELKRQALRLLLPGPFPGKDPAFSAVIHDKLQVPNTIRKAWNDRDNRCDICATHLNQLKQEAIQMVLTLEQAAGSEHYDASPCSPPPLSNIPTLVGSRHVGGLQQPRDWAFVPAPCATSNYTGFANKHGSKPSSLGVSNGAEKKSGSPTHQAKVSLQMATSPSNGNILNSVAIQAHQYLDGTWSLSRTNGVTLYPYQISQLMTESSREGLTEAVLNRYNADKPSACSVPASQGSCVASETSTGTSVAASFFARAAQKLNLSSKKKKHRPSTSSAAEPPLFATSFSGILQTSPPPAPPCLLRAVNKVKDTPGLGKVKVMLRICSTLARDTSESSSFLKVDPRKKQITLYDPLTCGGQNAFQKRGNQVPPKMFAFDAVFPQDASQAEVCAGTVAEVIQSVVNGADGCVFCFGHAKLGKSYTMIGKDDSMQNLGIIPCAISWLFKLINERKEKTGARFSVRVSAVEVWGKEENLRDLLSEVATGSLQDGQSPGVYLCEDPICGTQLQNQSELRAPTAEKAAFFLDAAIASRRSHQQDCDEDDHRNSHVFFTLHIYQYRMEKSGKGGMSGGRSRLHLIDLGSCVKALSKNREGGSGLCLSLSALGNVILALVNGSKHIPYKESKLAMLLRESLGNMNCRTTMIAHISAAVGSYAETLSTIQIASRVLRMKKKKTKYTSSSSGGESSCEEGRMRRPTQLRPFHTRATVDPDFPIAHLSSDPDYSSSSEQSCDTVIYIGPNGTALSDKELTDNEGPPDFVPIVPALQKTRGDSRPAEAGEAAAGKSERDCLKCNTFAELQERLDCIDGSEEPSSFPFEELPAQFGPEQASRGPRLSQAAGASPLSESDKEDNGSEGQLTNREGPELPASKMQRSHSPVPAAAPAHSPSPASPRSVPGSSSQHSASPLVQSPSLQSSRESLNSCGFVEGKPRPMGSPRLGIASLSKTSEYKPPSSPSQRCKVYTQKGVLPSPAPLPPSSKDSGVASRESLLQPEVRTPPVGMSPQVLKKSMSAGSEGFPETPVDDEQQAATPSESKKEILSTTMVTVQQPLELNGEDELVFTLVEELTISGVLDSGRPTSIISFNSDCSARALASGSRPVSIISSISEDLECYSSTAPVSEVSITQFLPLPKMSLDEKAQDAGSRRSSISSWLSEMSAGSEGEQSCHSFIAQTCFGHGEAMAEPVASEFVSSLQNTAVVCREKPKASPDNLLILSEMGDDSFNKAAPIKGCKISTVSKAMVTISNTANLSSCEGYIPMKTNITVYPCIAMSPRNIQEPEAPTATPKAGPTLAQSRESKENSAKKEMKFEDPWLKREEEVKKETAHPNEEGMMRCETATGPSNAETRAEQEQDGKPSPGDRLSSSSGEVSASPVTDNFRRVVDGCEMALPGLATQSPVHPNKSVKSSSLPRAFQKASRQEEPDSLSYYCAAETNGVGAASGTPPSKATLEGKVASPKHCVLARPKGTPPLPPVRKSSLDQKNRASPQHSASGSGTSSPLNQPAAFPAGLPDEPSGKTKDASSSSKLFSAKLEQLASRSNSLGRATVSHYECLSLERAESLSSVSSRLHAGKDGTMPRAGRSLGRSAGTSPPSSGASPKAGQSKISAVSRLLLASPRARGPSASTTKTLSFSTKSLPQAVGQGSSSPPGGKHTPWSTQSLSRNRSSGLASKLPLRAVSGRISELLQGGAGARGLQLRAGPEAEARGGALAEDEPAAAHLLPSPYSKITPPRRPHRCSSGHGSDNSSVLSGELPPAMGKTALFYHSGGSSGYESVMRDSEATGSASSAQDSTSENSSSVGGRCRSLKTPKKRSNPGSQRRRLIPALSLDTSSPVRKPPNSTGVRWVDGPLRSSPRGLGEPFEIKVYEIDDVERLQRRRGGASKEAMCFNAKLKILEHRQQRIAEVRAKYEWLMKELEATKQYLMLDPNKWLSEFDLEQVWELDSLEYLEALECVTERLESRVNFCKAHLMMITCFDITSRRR
UniProt Q8N4C8: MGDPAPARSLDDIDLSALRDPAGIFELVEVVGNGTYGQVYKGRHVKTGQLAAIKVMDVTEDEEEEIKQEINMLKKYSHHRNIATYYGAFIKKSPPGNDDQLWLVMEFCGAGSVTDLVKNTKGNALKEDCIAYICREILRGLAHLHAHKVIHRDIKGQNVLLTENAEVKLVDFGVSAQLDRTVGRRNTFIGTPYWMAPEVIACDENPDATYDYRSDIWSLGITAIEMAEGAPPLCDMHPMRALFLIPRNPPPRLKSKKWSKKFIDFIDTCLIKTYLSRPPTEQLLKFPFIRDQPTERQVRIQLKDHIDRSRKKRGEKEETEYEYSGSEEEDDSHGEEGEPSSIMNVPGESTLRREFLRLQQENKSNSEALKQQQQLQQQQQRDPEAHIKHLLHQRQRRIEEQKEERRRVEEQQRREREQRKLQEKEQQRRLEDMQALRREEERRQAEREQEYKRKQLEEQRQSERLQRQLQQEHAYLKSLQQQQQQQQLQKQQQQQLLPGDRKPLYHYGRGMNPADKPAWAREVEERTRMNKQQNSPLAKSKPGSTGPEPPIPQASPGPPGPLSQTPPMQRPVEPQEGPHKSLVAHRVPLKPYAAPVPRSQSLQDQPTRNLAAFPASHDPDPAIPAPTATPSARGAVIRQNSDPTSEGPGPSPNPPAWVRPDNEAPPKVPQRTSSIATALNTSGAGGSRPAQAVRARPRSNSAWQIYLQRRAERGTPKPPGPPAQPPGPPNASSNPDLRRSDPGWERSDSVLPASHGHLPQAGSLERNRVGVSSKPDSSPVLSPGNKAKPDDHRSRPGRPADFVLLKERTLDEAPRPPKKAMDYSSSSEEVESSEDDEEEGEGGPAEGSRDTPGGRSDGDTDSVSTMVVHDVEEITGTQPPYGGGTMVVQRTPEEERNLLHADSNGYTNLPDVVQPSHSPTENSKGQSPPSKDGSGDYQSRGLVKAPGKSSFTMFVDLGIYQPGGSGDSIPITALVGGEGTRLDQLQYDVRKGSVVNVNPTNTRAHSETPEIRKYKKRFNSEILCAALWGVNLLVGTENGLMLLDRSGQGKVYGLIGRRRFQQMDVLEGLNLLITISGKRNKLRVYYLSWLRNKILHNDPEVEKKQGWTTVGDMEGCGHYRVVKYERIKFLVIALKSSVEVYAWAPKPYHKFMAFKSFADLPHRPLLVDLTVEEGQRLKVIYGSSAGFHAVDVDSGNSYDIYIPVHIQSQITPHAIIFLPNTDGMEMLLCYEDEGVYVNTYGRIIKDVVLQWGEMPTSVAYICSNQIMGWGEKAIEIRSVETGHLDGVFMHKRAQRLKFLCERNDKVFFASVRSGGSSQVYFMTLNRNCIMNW
UniProt Q01973, residues 30-937: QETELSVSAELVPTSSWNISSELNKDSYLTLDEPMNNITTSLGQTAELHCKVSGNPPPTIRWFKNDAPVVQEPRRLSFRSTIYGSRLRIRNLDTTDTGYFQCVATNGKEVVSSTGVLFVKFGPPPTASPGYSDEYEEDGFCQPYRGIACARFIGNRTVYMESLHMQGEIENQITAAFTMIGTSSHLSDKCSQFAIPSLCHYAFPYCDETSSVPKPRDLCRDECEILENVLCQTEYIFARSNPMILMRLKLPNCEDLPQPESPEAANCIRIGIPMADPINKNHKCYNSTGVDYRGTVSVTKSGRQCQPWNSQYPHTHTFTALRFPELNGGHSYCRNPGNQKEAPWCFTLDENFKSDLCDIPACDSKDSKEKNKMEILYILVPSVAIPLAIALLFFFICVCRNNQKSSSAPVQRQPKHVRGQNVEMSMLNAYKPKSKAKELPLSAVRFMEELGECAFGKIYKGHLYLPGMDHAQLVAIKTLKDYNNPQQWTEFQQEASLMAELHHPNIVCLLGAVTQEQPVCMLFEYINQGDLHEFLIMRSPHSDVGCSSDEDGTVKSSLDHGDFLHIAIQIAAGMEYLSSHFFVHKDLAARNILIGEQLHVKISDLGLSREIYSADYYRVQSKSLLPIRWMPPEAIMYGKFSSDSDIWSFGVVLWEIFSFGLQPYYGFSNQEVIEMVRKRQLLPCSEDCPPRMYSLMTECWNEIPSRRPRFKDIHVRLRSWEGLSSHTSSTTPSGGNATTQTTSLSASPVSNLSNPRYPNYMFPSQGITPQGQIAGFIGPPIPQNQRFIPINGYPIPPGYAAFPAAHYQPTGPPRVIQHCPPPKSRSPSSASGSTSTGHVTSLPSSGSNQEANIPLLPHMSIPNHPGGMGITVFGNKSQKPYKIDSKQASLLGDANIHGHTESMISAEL
UniProt Q01974, residues 34-943: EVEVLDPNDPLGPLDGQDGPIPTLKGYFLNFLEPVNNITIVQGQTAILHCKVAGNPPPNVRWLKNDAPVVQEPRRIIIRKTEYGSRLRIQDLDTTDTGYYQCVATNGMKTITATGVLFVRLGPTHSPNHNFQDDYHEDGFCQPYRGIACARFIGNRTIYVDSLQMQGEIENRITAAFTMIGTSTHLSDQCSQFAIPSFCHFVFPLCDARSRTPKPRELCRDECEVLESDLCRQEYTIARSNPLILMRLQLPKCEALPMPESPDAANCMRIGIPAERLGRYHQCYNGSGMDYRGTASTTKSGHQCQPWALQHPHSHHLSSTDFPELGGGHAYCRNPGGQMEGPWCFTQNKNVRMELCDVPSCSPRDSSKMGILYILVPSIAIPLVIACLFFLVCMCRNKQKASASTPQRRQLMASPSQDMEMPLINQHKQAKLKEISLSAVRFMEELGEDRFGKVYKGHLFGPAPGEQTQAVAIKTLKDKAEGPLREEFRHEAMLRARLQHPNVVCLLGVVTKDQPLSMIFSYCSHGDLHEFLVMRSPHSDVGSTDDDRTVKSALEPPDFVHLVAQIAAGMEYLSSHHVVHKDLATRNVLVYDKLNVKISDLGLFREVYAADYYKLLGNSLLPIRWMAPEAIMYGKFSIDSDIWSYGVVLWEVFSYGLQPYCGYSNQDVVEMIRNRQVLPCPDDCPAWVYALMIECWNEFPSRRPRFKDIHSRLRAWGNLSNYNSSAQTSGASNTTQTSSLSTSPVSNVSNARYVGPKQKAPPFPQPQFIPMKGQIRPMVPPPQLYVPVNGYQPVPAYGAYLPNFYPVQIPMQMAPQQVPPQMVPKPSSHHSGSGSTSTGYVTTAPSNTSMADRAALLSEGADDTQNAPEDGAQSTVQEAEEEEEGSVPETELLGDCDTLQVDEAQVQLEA

Assay [2] deals with T2, PRICKLE1 fused N-terminally with miniTurboID and the V5 tag (human) (UniProt Q96MT3).
T2 sequence: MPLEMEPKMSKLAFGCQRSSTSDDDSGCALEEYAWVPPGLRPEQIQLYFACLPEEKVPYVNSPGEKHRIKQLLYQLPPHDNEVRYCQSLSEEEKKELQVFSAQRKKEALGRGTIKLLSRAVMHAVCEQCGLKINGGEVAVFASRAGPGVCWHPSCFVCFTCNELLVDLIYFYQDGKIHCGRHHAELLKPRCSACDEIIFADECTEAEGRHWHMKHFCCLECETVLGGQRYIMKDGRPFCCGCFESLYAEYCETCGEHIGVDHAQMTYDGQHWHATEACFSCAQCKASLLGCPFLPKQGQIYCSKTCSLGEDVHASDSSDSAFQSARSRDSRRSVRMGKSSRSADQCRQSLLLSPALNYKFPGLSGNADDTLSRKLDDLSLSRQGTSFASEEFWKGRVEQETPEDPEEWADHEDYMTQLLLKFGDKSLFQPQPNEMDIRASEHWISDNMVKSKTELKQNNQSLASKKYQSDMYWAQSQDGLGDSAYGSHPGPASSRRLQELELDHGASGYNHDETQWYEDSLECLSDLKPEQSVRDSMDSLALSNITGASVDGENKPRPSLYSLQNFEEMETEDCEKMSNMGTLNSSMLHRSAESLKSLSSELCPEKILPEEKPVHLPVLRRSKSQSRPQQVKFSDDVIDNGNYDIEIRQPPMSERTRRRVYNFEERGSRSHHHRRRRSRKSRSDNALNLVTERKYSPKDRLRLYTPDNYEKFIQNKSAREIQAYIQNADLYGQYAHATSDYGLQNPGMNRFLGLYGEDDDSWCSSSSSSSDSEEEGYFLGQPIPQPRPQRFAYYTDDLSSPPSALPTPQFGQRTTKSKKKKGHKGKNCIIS

The target in assay [3] is T3, PRICKLE2 fused N-terminally with miniTurboID and the V5 tag (human) (UniProt Q7Z3G6).
T3 sequence: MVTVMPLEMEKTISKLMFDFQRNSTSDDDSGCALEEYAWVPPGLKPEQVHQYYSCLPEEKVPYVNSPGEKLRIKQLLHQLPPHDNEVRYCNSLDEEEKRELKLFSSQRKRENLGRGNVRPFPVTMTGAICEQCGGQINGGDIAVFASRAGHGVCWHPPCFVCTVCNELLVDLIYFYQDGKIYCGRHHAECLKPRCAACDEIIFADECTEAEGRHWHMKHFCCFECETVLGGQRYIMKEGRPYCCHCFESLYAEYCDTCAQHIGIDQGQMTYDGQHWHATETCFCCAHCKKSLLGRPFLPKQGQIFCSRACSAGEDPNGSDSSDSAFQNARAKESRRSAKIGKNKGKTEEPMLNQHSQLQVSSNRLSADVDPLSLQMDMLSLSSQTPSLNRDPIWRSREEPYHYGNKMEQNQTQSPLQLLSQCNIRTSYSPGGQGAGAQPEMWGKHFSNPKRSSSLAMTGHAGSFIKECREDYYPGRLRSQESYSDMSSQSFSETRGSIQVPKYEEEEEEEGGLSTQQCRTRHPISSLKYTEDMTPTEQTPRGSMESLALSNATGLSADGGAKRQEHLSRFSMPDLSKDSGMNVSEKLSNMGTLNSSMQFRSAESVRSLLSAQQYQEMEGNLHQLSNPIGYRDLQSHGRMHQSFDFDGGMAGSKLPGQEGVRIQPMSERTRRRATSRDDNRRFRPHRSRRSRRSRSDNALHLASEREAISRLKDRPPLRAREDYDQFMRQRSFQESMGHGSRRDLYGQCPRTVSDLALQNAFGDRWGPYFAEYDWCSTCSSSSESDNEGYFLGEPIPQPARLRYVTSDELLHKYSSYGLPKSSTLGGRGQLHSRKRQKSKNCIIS

Assay [4] addresses T1, PRICKLE3 fused N-terminally with miniTurboID and the V5 tag (human). This is another data set of the same source.

Where two headings read alike, the source gives them in different places. These are yes or no findings as the source states them, for the method shown. In cells and extracts the contact can be indirect. A yes stands for co-enrichment or nearness to the bait. Other partners may have been found. Where a sequence is shown, tags or fusion partners need not be part of it.

With “Cadherin EGF LAG Seven-Pass G-Type Receptor 1 (CELSR1), endogenous (from UniProt Q9NYQ6 21-3014)”, the binding entry in assay [1] was “binds”.
On to “Cadherin EGF LAG Seven-Pass G-Type Receptor 2 (CELSR2), endogenous (from UniProt Q9HCU4 32-2923)”, for which the binding result in assay [1] was “binds”.
For “Casein kinase 1 ε (CK1ε), endogenous (from UniProt P49674 1-416) (enzyme)”, the binding entry in assay [2], in assay [3] and in assay [1] was “binds” throughout.
Take “Kinesin-like protein KIF26B, endogenous (from UniProt Q2KJY2 1-2108)”: the binding entry in assay [1] was “binds”.
For the molecule “Misshapen-like kinase 1, endogenous (from UniProt Q8N4C8 1-1332) (enzyme)”, the binding result in assay [2], in assay [3] and in assay [1] was “binds” throughout.
For the molecule “Receptor tyrosine Kinase-like Orphan Receptor 1 (ROR1), endogenous (from UniProt Q01973 30-937)”, the binding entry in assay [1] was “binds”.
On to “Receptor tyrosine Kinase-like Orphan Receptor 2 (ROR2), endogenous (from UniProt Q01974 34-943)”, for which the binding result in assay [1] is “binds”.

B1: Frizzled 3 (FZD3), endogenous (receptor, UniProt Q9NPG1 23-666)
chain: HSLFSCEPITLRMCQDLPYNTTFMPNLLNHYDQQTAALAMEPFHPMVNLDCSRDFRPFLCALYAPICMEYGRVTLPCRRLCQRAYSECSKLMEMFGVPWPEDMECSRFPDCDEPYPRLVDLNLAGEPTEGAPVAVQRDYGFWCPRELKIDPDLGYSFLHVRDCSPPCPNMYFRREELSFARYFIGLISIICLSATLFTFLTFLIDVTRFRYPERPIIFYAVCYMMVSLIFFIGFLLEDRVACNASIPAQYKASTVTQGSHNKACTMLFMILYFFTMAGSVWWVILTITWFLAAVPKWGSEAIEKKALLFHASAWGIPGTLTIILLAMNKIEGDNISGVCFVGLYDVDALRYFVLAPLCLYVVVGVSLLLAGIISLNRVRIEIPLEKENQDKLVKFMIRIGVFSILYLVPLLVVIGCYFYEQAYRGIWETTWIQERCREYHIPCPYQVTQMSRPDLILFLMKYLMALIVGIPSVFWVGSKKTCFEWASFFHGRRKKEIVNESRQVLQEPDFAQSLLRDPNTPIIRKSRGTSTQGTSTHASSTQLAMVDDQRSKAGSIHSKVSSYHGSLHRSRDGRYTPCSYRGMEERLPHGSMSRLTDHSRHSSSHRLNEQSRHSSIRDLSNNPMTHITHGTSMNRVIEEDGTSA
On to B1, for which the binding entry in assay [4] is recorded as “binds”.

B2: VANGL1 (Van Gogh-like 1), endogenous (protein, UniProt Q8TAA9 1-524)
chain: MDTESTYSGYSYYSSHSKKSHRQGERTRERHKSPRNKDGRGSEKSVTIQPPTGEPLLGNDSTRTEEVQDDNWGETTTAITGTSEHSISQEDIARISKDMEDSVGLDCKRYLGLTVASFLGLLVFLTPIAFILLPPILWRDELEPCGTICEGLFISMAFKLLILLIGTWALFFRKRRADMPRVFVFRALLLVLIFLFVVSYWLFYGVRILDSRDRNYQGIVQYAVSLVDALLFIHYLAIVLLELRQLQPMFTLQVVRSTDGESRFYSLGHLSIQRAALVVLENYYKDFTIYNPNLLTASKFRAAKHMAGLKVYNVDGPSNNATGQSRAMIAAAARRRDSSHNELYYEEAEHERRVKKRKARLVVAVEEAFIHIQRLQAEEQQKAPGEVMDPREAAQAIFPSMARALQKYLRITRQQNYHSMESILQHLAFCITNGMTPKAFLERYLSAGPTLQYDKDRWLSTQWRLVSDEAVTNGLRDGIVFVLKCLDFSLVVNVKKIPFIILSEEFIDPKSHKFVLRLQSETSV
Consider B2, for which the binding entry in assay [4] is “binds”.

B3: SRCIN1 (SNAP-25-Interacting Protein), endogenous (protein, UniProt Q9C0H9 1-1183)
chain: MGNAPSQDPERSSPPMLSADDAEYPREYRTLGGGGGGGSGGRRFSNVGLVHTSERRHTVIAAQSLEALSGLQKADADRKRDAFMDHLKSKYPQHALALRGQQDRMREQPNYWSFKTRSSRHTQGAQPGLADQAAKLSYASAESLETMSEAELPLGFSRMNRFRQSLPLSRSASQTKLRSPGVLFLQFGEETRRVHITHEVSSLDTLHALIAHMFPQKLTMGMLKSPNTAILIKDEARNVFYELEDVRDIQDRSIIKIYRKEPLYAAFPGSHLTNGDLRREMVYASRESSPTRRLNNLSPAPHLASGSPPPGLPSGLPSGLQSGSPSRSRLSYAGGRPPSYAGSPVHHAAERLGGAPAAQGVSPSPSAILERRDVKPDEDLASKAGGMVLVKGEGLYADPYGLLHEGRLSLAAAAGDPFAYPGAGGLYKRGSVRSLSTYSAAALQSDLEDSLYKAAGGGGPLYGDGYGFRLPPSSPQKLADVAAPPGGPPPPHSPYSGPPSRGSPVRQSFRKDSGSSSVFAESPGGKTRSAGSASTAGAPPSELFPGPGERSLVGFGPPVPAKDTETRERMEAMEKQIASLTGLVQSALLRGSEPETPSEKIEGSNGAATPSAPCGSGGRSSGATPVSGPPPPSASSTPAGQPTAVSRLQMQLHLRGLQNSASDLRGQLQQLRKLQLQNQESVRALLKRTEAELSMRVSEAARRQEDPLQRQRTLVEEERLRYLNDEELITQQLNDLEKSVEKIQRDVSHNHRLVPGPELEEKALVLKQLGETLTELKAHFPGLQSKMRVVLRVEVEAVKFLKEEPQRLDGLLKRCRGVTDTLAQIRRQVDEGVWPPPNNLLSQSPKKVTAETDFNKSVDFEMPPPSPPLNLHELSGPAEGASLTPKGGNPTKGLDTPGKRSVDKAVSVEAAERDWEEKRAALTQYSAKDINRLLEETQAELLKAIPDLDCASKAHPGPAPTPDHKPPKAPHGQKAAPRTEPSGRRGSDELTVPRYRTEKPSKSPPPPPPRRSFPSSHGLTTTRTGEVVVTSKKDSAFIKKAESEELEVQKPQVKLRRAVSEVARPASTPPIMASAIKDEDDEDRIIAELESGGGSVPPMKVVTPGASRLKAAQGQAGSPDKSKHGKQRAEYMRIQAQQQATKPSKEMSGSNETSSPVSEKPSASRTSIPVLTSFGARNSSISF
For the molecule B3, the binding entry in assay [4] is reported as “binds”.

The values are drawn from publication doi:10.1101/2025.03.24.644882.
